Assay results published in PMC7293033.
Results are given in words; binding and its absence hold for the method and conditions named. Some entries that bind do so weakly or less than the wild type.

Amino acid sequences for entries named in this document (tags omitted). A change or cut given only in a name is not applied to a line headed by its entry. Chains listed by the source or under a name are the forms on record and can include a tag or linker. Residues count along the entry.
UniProt Q13838: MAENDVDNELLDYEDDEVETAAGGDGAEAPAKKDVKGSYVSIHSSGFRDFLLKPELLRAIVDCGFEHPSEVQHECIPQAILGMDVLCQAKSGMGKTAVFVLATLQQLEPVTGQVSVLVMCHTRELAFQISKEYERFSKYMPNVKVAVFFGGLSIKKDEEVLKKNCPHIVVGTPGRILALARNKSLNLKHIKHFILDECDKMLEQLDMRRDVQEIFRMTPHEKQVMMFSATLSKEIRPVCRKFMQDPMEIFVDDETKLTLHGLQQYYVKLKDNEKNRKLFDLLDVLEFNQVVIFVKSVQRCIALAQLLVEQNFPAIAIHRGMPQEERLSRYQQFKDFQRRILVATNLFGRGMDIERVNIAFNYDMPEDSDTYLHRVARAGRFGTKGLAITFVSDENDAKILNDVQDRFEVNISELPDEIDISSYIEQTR
His-FGF2, LMW FGF2 (residues 135-288, C211S/C229S) (P09038, form named): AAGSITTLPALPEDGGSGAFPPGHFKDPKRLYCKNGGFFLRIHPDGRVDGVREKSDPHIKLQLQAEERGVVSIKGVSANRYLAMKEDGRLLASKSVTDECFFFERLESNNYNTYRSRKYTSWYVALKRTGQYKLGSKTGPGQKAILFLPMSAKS

Target: GST-UAP56 (human) (UniProt Q13838)
Assay: pull-down; GST pulldown with purified recombinant GST-UAP56, His-API5 and His-LMW FGF2; Coomassie blue staining and western blot with anti-His tag antibody; both purified

His-FGF2, LMW FGF2 (residues 135-288, C211S/C229S) (from UniProt P09038 135-288)
binding: binds
